Laboratory results reported in the supplement of paper PMC8728848.
The list shows a part of the results.

Columns and labels:
Test in all cases: glycan array binding signal (z-score within array); higher = stronger binding
Settings in all cases: glycan notation: IUPAC condensed, linker removed
[1] = biological target: Gal(b1-3)GlcNAc(b1-6)GalNAc
In short: (§1)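 The binding signal is a Z-score computed within each array and averaged over linkers. Arrays of the same protein sequence at different concentrations or buffers were also averaged together. Data originate from 3228 arrays in the Consortium for Functional Glycomics database, kept only where the protein sequence was available.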

[2] = biological target: Gal(b1-3)GlcNAc(b1-6)[Gal(b1-3)]GalNAc
In short: as §1

Gal(b1-3)GlcNAc6S = biological target: Gal(b1-3)GlcNAc6S
In short: as §1

[3] = biological target: Gal(b1-3)[Fuc(a1-4)]GlcNAc
In short: as §1

[4] = biological target: Gal(b1-3)[Fuc(a1-4)]GlcNAc(b1-2)Man
In short: as §1

[5] = biological target: Gal(b1-3)[Fuc(a1-4)]GlcNAc(b1-2)Man(a1-3)[Gal(b1-3)[Fuc(a1-4)]GlcNAc(b1-2)Man(a1-6)]Man(b1-4)GlcNAc(b1-4)[Fuc(a1-6)]GlcNAc
In short: as §1

[6] = biological target: Gal(b1-3)[Fuc(a1-4)]GlcNAc(b1-3)Gal(b1-3)[Fuc(a1-4)]GlcNAc
In short: as §1

[7] = biological target: Gal(b1-3)[Fuc(a1-4)]GlcNAc(b1-3)Gal(b1-4)[Fuc(a1-3)]GlcNAc
In short: as §1

[8] = biological target: Gal(b1-3)[Fuc(a1-4)]GlcNAc(b1-6)GalNAc
In short: as §1

[9] = biological target: Gal(b1-3)[GlcNAc(b1-6)]GalNAc
In short: as §1

[10] = biological target: Gal(b1-3)[Neu5Ac(a2-6)]GalNAc
In short: as §1

[11] = biological target: Gal(b1-3)[Neu5Ac(a2-6)]GlcNAc(b1-4)Gal(b1-4)Glc
In short: as §1

[12] = biological target: Gal(b1-3)[Neu5Ac(b2-6)]GalNAc
In short: as §1

Gal(b1-4)Gal = biological target: Gal(b1-4)Gal
In short: as §1

[13] = biological target: Gal(b1-4)GalNAc(a1-3)[Fuc(a1-2)]Gal(b1-4)GlcNAc
In short: as §1

[14] = biological target: Gal(b1-4)GalNAc(b1-3)[Fuc(a1-2)]Gal(b1-4)GlcNAc
In short: as §1

Gal(b1-4)Glc = biological target: Gal(b1-4)Glc
In short: as §1

Gal(b1-4)Glc6S = biological target: Gal(b1-4)Glc6S
In short: as §1

Gal(b1-4)GlcNAc = biological target: Gal(b1-4)GlcNAc
In short: as §1

[15] = biological target: Gal(b1-4)GlcNAc(a1-6)Gal(b1-4)GlcNAc
In short: as §1

Gal(b1-4)GlcNAc(b1-2)Man = biological target: Gal(b1-4)GlcNAc(b1-2)Man
In short: as §1

[16] = biological target: Gal(b1-4)GlcNAc(b1-2)Man(a1-3)Man(b1-4)GlcNAc(b1-4)GlcNAc
In short: as §1

[17] = biological target: Gal(b1-4)GlcNAc(b1-2)Man(a1-3)[Gal(b1-4)GlcNAc(b1-2)Man(a1-6)]Man(b1-4)GlcNAc(b1-4)GlcNAc
In short: as §1

[18] = biological target: Gal(b1-4)GlcNAc(b1-2)Man(a1-3)[Gal(b1-4)GlcNAc(b1-2)Man(a1-6)]Man(b1-4)GlcNAc(b1-4)[Fuc(a1-6)]GlcNAc
In short: as §1

[19] = biological target: Gal(b1-4)GlcNAc(b1-2)Man(a1-3)[Gal(b1-4)GlcNAc(b1-2)Man(a1-6)][Gal(b1-4)GlcNAc(b1-4)]Man(b1-4)GlcNAc(b1-4)[Fuc(a1-6)]GlcNAc
In short: as §1

[20] = biological target: Gal(b1-4)GlcNAc(b1-2)Man(a1-3)[Gal(b1-4)GlcNAc(b1-2)Man(a1-6)][GlcNAc(b1-4)]Man(b1-4)GlcNAc(b1-4)[Fuc(a1-6)]GlcNAc
In short: as §1

[21] = biological target: Gal(b1-4)GlcNAc(b1-2)Man(a1-3)[GlcNAc(b1-2)Man(a1-6)]Man(b1-4)GlcNAc(b1-4)GlcNAc
In short: as §1

[22] = biological target: Gal(b1-4)GlcNAc(b1-2)Man(a1-3)[GlcNAc(b1-4)][Gal(b1-4)GlcNAc(b1-2)Man(a1-6)]Man(b1-4)GlcNAc(b1-4)GlcNAc
In short: as §1

[23] = biological target: Gal(b1-4)GlcNAc(b1-2)Man(a1-3)[Man(a1-6)]Man(b1-4)GlcNAc(b1-4)GlcNAc
In short: as §1

[24] = biological target: Gal(b1-4)GlcNAc(b1-2)Man(a1-6)Man(b1-4)GlcNAc(b1-4)GlcNAc
In short: as §1

[25] = biological target: Gal(b1-4)GlcNAc(b1-2)Man(a1-6)[GlcNAc(b1-2)Man(a1-3)]Man(b1-4)GlcNAc(b1-4)GlcNAc
In short: as §1

[26] = biological target: Gal(b1-4)GlcNAc(b1-2)Man(a1-6)[Man(a1-3)]Man(b1-4)GlcNAc(b1-4)GlcNAc
In short: as §1

[27] = biological target: Gal(b1-4)GlcNAc(b1-2)[Gal(b1-4)GlcNAc(b1-4)]Man(a1-3)[Gal(b1-4)GlcNAc(b1-2)Man(a1-6)]Man(b1-4)GlcNAc(b1-4)GlcNAc
In short: as §1

[28] = biological target: Gal(b1-4)GlcNAc(b1-2)[Gal(b1-4)GlcNAc(b1-4)]Man(a1-3)[Gal(b1-4)GlcNAc(b1-2)[Gal(b1-4)GlcNAc(b1-6)]Man(a1-6)]Man(b1-4)GlcNAc(b1-4)GlcNAc
In short: as §1

[29] = biological target: Gal(b1-4)GlcNAc(b1-2)[Gal(b1-4)GlcNAc(b1-4)]Man(a1-3)[GlcNAc(b1-4)][Gal(b1-4)GlcNAc(b1-2)Man(a1-6)]Man(b1-4)GlcNAc(b1-4)GlcNAc
In short: as §1

[30] = biological target: Gal(b1-4)GlcNAc(b1-2)[Gal(b1-4)GlcNAc(b1-4)]Man(a1-3)[GlcNAc(b1-4)][Gal(b1-4)GlcNAc(b1-2)[Gal(b1-4)GlcNAc(b1-6)]Man(a1-6)]Man(b1-4)GlcNAc(b1-4)GlcNAc
In short: as §1

[31] = biological target: Gal(b1-4)GlcNAc(b1-2)[Gal(b1-4)GlcNAc(b1-6)]Man(a1-6)[Gal(b1-4)GlcNAc(b1-2)Man(a1-3)]Man(b1-4)GlcNAc(b1-4)GlcNAc
In short: as §1

[32] = biological target: Gal(b1-4)GlcNAc(b1-2)[Gal(b1-4)GlcNAc(b1-6)]Man(a1-6)[Gal(b1-4)GlcNAc(b1-2)Man(a1-3)]Man(b1-4)GlcNAc(b1-4)[Fuc(a1-6)]GlcNAc
In short: as §1

[33] = biological target: Gal(b1-4)GlcNAc(b1-2)[Gal(b1-4)GlcNAc(b1-6)]Man(a1-6)[GlcNAc(b1-4)][Gal(b1-4)GlcNAc(b1-2)Man(a1-3)]Man(b1-4)GlcNAc(b1-4)GlcNAc
In short: as §1

[34] = biological target: Gal(b1-4)GlcNAc(b1-2)[Gal(b1-4)GlcNAc(b1-6)]Man(a1-6)[GlcNAc(b1-4)][Gal(b1-4)GlcNAc(b1-2)[Gal(b1-4)GlcNAc(b1-4)]Man(a1-3)]Man(b1-4)GlcNAc(b1-4)[Fuc(a1-6)]GlcNAc
In short: as §1

[35] = biological target: Gal(b1-4)GlcNAc(b1-3)Gal(b1-3)GalNAc
In short: as §1

[36] = biological target: Gal(b1-4)GlcNAc(b1-3)Gal(b1-3)GlcNAc
In short: as §1

[37] = biological target: Gal(b1-4)GlcNAc(b1-3)Gal(b1-4)Glc
In short: as §1

[38] = biological target: Gal(b1-4)GlcNAc(b1-3)Gal(b1-4)GlcNAc
In short: as §1

[39] = biological target: Gal(b1-4)GlcNAc(b1-3)Gal(b1-4)GlcNAc(b1-2)Man(a1-3)[Gal(b1-4)GlcNAc(b1-3)Gal(b1-4)GlcNAc(b1-2)Man(a1-6)]Man(b1-4)GlcNAc(b1-4)GlcNAc
In short: as §1

B1: OS9-MRH (Homo sapiens), Q13438 (protein)
chain: IPELLSPMRDAPCLLKTKDWWTYEFCYGRHIQQYHMEDSEIKGEVLYLGYYQSAFDWDDETAKASKQHRLKRYHSQTYGNGSKCDLNGRPREAEVRFLCDEGAGISGDYIDRVDEPLSCSYVLTIRTPRLCPHPLLRPPPSAAPQAI
glycan array binding signal (z-score) [1]: -0.373 | glycan array binding signal (z-score) [2]: 0.367 | glycan array binding signal (z-score) (Gal(b1-3)GlcNAc6S): -0.326 | glycan array binding signal (z-score) [3]: 0.288 | glycan array binding signal (z-score) [4]: 0.187 | glycan array binding signal (z-score) [5]: -0.699 | glycan array binding signal (z-score) [6]: 0.676 | glycan array binding signal (z-score) [7]: 0.737 | glycan array binding signal (z-score) [8]: -0.229 | glycan array binding signal (z-score) [9]: -0.261 | glycan array binding signal (z-score) [10]: -1.18 | glycan array binding signal (z-score) [11]: 0.73 | glycan array binding signal (z-score) [12]: 0.273 | glycan array binding signal (z-score) (Gal(b1-4)Gal): -2.19 | glycan array binding signal (z-score) [13]: -0.388 | glycan array binding signal (z-score) [14]: 0.638 | glycan array binding signal (z-score) (Gal(b1-4)Glc): -0.261 | glycan array binding signal (z-score) (Gal(b1-4)Glc6S): 0.787 | glycan array binding signal (z-score) (Gal(b1-4)GlcNAc): -0.753 | glycan array binding signal (z-score) [15]: -0.581 | glycan array binding signal (z-score) (Gal(b1-4)GlcNAc(b1-2)Man): -0.472 | glycan array binding signal (z-score) [16]: 1.15 | glycan array binding signal (z-score) [17]: -0.727 | glycan array binding signal (z-score) [18]: -0.372 | glycan array binding signal (z-score) [19]: -1.66 | glycan array binding signal (z-score) [20]: 1.72 | glycan array binding signal (z-score) [21]: -0.666 | glycan array binding signal (z-score) [22]: 0.555 | glycan array binding signal (z-score) [23]: 0.045 | glycan array binding signal (z-score) [24]: 2.22 | glycan array binding signal (z-score) [25]: 0.899 | glycan array binding signal (z-score) [26]: 1.24 | glycan array binding signal (z-score) [27]: -0.776 | glycan array binding signal (z-score) [28]: -1.25 | glycan array binding signal (z-score) [29]: -1.03 | glycan array binding signal (z-score) [30]: 0.053 | glycan array binding signal (z-score) [31]: 1.01 | glycan array binding signal (z-score) [32]: -0.416 | glycan array binding signal (z-score) [33]: -0.598 | glycan array binding signal (z-score) [34]: -0.043 | glycan array binding signal (z-score) [35]: -1.17 | glycan array binding signal (z-score) [36]: -0.568 | glycan array binding signal (z-score) [37]: -0.032 | glycan array binding signal (z-score) [38]: 0.016 | glycan array binding signal (z-score) [39]: 1.88
